Assay results published in paper PMC10653861, “Three small partner proteins facilitate the type VII-dependent secretion of an antibacterial nuclease” (mBio, 2023).

Amino acid sequences for entries named in this document (tags omitted). A change or cut given only in a name is not applied to a line headed by its entry. Residues count along the entry.
UniProt Q2G179, residues 1-477: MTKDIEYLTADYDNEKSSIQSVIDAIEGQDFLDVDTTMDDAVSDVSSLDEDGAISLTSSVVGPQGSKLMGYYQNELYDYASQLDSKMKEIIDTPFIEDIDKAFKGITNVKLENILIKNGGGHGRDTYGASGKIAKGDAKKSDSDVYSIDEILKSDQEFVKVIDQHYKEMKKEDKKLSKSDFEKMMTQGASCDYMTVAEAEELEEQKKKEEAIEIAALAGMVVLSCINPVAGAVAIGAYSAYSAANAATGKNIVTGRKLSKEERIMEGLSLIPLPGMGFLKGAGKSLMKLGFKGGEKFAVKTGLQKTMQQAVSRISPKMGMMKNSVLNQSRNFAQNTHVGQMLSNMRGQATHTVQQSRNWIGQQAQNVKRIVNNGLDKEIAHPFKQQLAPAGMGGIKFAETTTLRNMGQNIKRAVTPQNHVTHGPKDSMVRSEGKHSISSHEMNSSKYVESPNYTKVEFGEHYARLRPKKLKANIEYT
UniProt Q2G183: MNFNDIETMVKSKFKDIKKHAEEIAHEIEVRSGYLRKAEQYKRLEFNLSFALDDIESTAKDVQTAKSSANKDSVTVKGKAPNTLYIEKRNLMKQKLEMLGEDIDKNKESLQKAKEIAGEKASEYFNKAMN
UniProt Q2G180: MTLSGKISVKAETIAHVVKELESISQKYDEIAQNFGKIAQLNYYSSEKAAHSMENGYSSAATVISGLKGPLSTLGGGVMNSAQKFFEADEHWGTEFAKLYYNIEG

Molecular target: EsaD_(1-477)-his (Staphylococcus aureus) (UniProt Q2G179)
Assay: pull-down + SEC

## EsxC (from UniProt Q2G183)
  binding: binds

## EsxD (from UniProt Q2G180)
  binding: binds

No constants are given. Whether binding was seen depends on the method and setting. In cells and extracts the contact can be indirect. Binding can be weak; no strength is given.
